These are yes or no findings as the source states them, for the method shown. Some entries that bind do so weakly or less than the wild type. For some of these results: Where a sequence is shown, tags or fusion partners need not be part of it.
T1: GST-prohibitin (UniProt P35232)
T1 sequence (looked up): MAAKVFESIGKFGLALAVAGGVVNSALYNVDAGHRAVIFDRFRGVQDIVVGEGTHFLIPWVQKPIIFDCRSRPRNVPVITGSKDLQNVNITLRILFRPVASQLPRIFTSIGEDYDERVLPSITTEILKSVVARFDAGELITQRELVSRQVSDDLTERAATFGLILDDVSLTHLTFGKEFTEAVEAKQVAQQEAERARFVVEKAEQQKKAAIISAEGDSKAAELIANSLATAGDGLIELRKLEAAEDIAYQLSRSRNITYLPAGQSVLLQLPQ

T2: human leukocyte proteinase-3 (PR-3) (human, UniProt P24158 28-248)
T2 construct: In the ELISAs the PR-3 was bought (Sigma); also called active PR-3; endogenous PR-3
T2 chain: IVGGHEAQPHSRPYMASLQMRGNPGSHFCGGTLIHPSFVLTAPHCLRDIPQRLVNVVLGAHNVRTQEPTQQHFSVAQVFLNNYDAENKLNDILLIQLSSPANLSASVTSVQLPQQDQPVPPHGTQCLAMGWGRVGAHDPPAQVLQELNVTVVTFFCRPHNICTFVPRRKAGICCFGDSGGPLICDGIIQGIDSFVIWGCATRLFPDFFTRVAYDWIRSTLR


Biological target: T1, GST-prohibitin
Test: phage binding assay on immobilized protein

Row | Binder | binding
1 | CKGGRAKDC […-displaying phage] | binds

Biological target: T1, GST-prohibitin
Test: phage binding to immobilized GST-prohibitin; member of the ANXA2-like subset (n=14)

Row | Binder | binding
2 | NLSGRRA [NLSGRRA (SEQ ID NO:22)] | binds
3 | GGRAHGI [GGRAHGI (SEQ ID NO:24)] | binds
4 | ASGRRES [ASGRRES (SEQ ID NO:14)] | binds
5 | HQKLLVA [HOKLLVA (SEQ ID NO:15)] | binds
6 | GRRSRDE [GRRSRDE (SEQ ID NO:16)] | binds
7 | GLVALAR [GLVALAR (SEQ ID NO:17)] | binds
8 | AGSGSVL [AGSGSVL (SEQ ID NO:18)] | binds
9 | SPAWGVR [SPAWGVR (SEQ ID NO:21)] | binds

Biological target: T2, human leukocyte proteinase-3 (PR-3)
Test: affinity capture on monoavidin beads with biotinylated peptides (equimolar admixture of … and …), from a membrane extract of human bone marrow cells

Row | Binder | binding
10 | CPGGGLVHC (cyclized; N-terminal biotin) [synthetic … peptide] | binds

Reference: US20140356285A1, “COMPOSITIONS AND METHODS RELATED TO TISSUE TARGETING” (THE BOARD OF REGENTS OF THE UNIVERSITY OF TEXAS SYSTEM, priority 2011, published 2014)
